Values from PubChem BioAssay AID1259308 (NCATS, 2017)
Shown is a random part of about 59,000 deposited reagents. In the full data, about 1,510 (2.6%) got an active call. 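Calls use total luciferase alone and ignore viability, so some active siRNAs may act by altering cell number.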 The numbers tell different reagents against one gene apart.

Purpose: 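Knock-downs that increase output of a recombinant reporter protein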 (primary screen)
Cells: human HEK293 embryonic kidney cells stably expressing firefly luciferase (HEK-CMV-Luc2-Hygro)
Reagents: single siRNA against human genes, 0.8 pmol siRNA per well
Time to read-out: 72 h
Read-out: 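Reporter luminescence and viable-cell signal on separate replicate plates, given as percent of non-targeting control and median/MAD z-scores, plus per-cell luciferase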
Reading the numbers: total luciferase, z-score and total luciferase, % of control: higher = more reporter protein produced; luciferase per cell, z-score: higher = more reporter output per viable cell; viable cells, % of control: higher = more viable cells
Active means: 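An siRNA counts as active if its total luciferase robust z-score exceeds 3; genes with two or more such siRNAs out of three were retested with fresh siRNAs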
Calls: active = raised luciferase; inactive = no rise

no.	gene symbol	reagent no.	total luciferase, z-score	total luciferase, % of control	luciferase per cell, z-score	viable cells, % of control	outcome
1	PRDM4	1	-1.59	50.3	-1.62	86.2	inactive
2	PRDM4	2	0.158	85	0.482	83.7	inactive
3	PRDM4	3	-0.727	67.4	0.0141	75.1	inactive
4	VLDLR	1	-0.706	67.8	-0.775	93	inactive
5	VLDLR	2	0.969	101	0.661	95	inactive
6	VLDLR	3	-1.23	57.3	-1.11	85.8	inactive
7	CFAP144P1	1	-0.433	73.3	1.44	56.1	inactive
8	CFAP144P1	2	-0.127	79.4	0.196	84.2	inactive
9	CFAP144P1	3	-2.33	35.5	-2.29	72.6	inactive
10	CT55P1	1	-0.77	66.6	-0.279	80.1	inactive
11	CT55P1	2	-0.297	76	-0.067	86.4	inactive
12	CT55P1	3	1.11	104	0.603	99.1	inactive
13	SH2B1	1	-0.42	73.5	-0.667	97.9	inactive
14	SH2B1	2	-1.79	46.3	-0.0936	53.1	inactive
15	SH2B1	3	-0.832	65.3	-0.639	86.4	inactive
16	H4C12	1	4.89	179	3.6	77.6	active
17	H4C12	2	1.12	104	1.98	69.1	inactive
18	H4C12	3	0.0896	83.7	0.655	78.7	inactive
19	FANCF	1	-0.00332	81.8	1.41	63.1	inactive
20	FANCF	2	-1.17	58.6	-0.519	75	inactive
21	FANCF	3	0.765	97.1	0.97	84	inactive
22	HEXA	1	-0.433	73.3	0.0903	79.9	inactive
23	HEXA	2	2.84	138	2.01	91.1	inactive
24	HEXA	3	-0.291	76.1	-0.344	93.1	inactive
25	IARS1	1	-0.319	75.5	-0.376	93.2	inactive
26	IARS1	2	-1.54	51.3	-2.48	110	inactive
27	IARS1	3	0.651	94.8	-0.0388	107	inactive
28	ABHD4	1	0.988	102	0.981	87.6	inactive
29	ABHD4	2	-0.334	75.2	-0.512	96.2	inactive
30	ABHD4	3	0.11	84.1	-0.0598	95.4	inactive
31	CLUL1	1	-0.0152	81.6	-0.0299	91.9	inactive
32	CLUL1	2	-0.326	75.4	-0.089	86.3	inactive
33	CLUL1	3	-0.127	79.4	-0.0231	89.2	inactive
34	KLHDC8B	1	-1.04	61.1	-0.082	69.8	inactive
35	KLHDC8B	2	1.08	103	1.67	74.5	inactive
36	KLHDC8B	3	-0.127	79.4	0.038	87.8	inactive
37	FPR2	1	0.0112	82.1	-0.294	99.1	inactive
38	FPR2	2	-0.357	74.8	-1.16	113	inactive
39	FPR2	3	1.31	108	0.329	111	inactive
40	HOXC10	1	-1.05	61.1	-0.87	85.8	inactive
41	HOXC10	2	-0.55	71	-0.0138	79.6	inactive
42	HOXC10	3	0.208	86	0.0584	94.7	inactive
43	ESF1	1	-1.9	44.1	-1.66	76.3	inactive
44	ESF1	2	0.46	91	0.181	97	inactive
45	ESF1	3	-0.58	70.4	0.234	73.9	inactive
46	SF3B6	1	-0.623	69.5	1.23	56.1	inactive
47	SF3B6	2	-0.198	77.9	2.01	51.3	inactive
48	SF3B6	3	0.0494	82.9	2.66	46	inactive
49	APRT	1	-0.211	77.7	-0.68	104	inactive
50	APRT	2	-0.38	74.3	-0.621	97.8	inactive
51	APRT	3	0.325	88.3	-0.159	103	inactive
52	NHLRC3	1	0.428	90.4	0.192	96	inactive
53	NHLRC3	2	0.696	95.7	0.839	85.8	inactive
54	NHLRC3	3	0.343	88.7	-0.832	123	inactive
55	SLC6A17	1	0.379	89.4	0.242	93.7	inactive
56	SLC6A17	2	0.102	83.9	-0.0399	94.8	inactive
57	SLC6A17	3	0.0695	83.3	0.0943	90.8	inactive
